Laboratory results: PubChem BioAssay AID686938 (Drosophila RNAi Screening Center, 2013)
The screen tested about 23,000 reagents; shown is a random part of those that have a named target and a result. In the full data, 75 (0.33%) were called active. 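Raw plate signals without normalisation; calls rest on plate z-scores that were not deposited; ratio present for only 364 wells.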 Unmarked entries are inactive. The numbers tell different reagents against one gene apart. Names joined by + are all predicted targets of the reagent. No sequences are given here. The record does not give: the dose of the treatment.

Aim: 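Fly genes required for calcium entry once internal stores are emptied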 (primary screen)
Cells: Drosophila S2R+ cells
Reagent: long dsRNA against Drosophila genes, about 0.25 µg dsRNA per well, roughly 10,000 cells
Duration: 5 days of knock-down before the calcium assay
Challenge: thapsigargin (SERCA pump blocker) to empty calcium stores; entry signal taken 4 min after adding it
Measurement: 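Per-well fluo-4 fluorescence in two replicates, unnormalised, measured in resting cells and 4 min after store depletion by the SERCA blocker thapsigargin; ratio of the two present in few wells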
Scale: calcium entry signal: higher = stronger calcium signal after store depletion; resting calcium signal: higher = higher resting calcium signal
Active means: 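Called when the plate z-score of the entry-to-rest ratio, mean of duplicates, falls below −3; wells with low overall dye signal (Fmax z below −2) or more than five off-targets excluded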
Meaning of the calls: active = strongly reduced calcium entry; inactive = no strong reduction

gene knocked down,reagent,"calcium entry signal, replicate 1 (fluorescence units)","calcium entry signal, replicate 2 (fluorescence units)","resting calcium signal, replicate 1 (fluorescence units)","resting calcium signal, replicate 2 (fluorescence units)"
C15,1,5.75e7,3.04e7,2.41e7,1.39e7
C15,2,4.31e7,3.80e7,5.76e7,1.73e7
CG12307,1,3.63e7,4.19e7,1.66e7,1.71e7
TpnC73F (Troponin C at 73F),1,2.61e7,4.43e7,1.47e7,1.80e7
Nepl3 (Neprilysin-like 3),1,4.39e7,,2.11e7,
CG32237,1,2.77e7,3.77e7,1.44e7,1.57e7
CG32237,2,2.81e7,4.29e7,1.43e7,1.89e7
Blos2,1,3.61e7,4.37e7,1.77e7,1.74e7
mms4 (Methyl methanesulfonate sensitivity 4),1,4.91e7,3.99e7,2.37e7,1.72e7
sip2 (septin interacting protein 2),1,3.52e7,3.72e7,1.75e7,1.73e7
CG31321,1,2.82e7,4.10e7,1.31e7,1.72e7
CycH (Cyclin H),1,3.19e7,5.16e7,1.51e7,2.13e7
CycH (Cyclin H),2,5.15e7,3.18e7,2.33e7,1.48e7
mbt (mushroom bodies tiny),1,2.91e7,2.93e7,1.64e7,1.39e7
mbt (mushroom bodies tiny),2,5.02e7,3.28e7,2.22e7,1.46e7
Rpt3 (Regulatory particle triple-A ATPase 3),1,2.11e7,2.52e7,1.55e7,1.73e7
CG12863,1,2.90e7,4.37e7,1.59e7,1.91e7
Treh (Trehalase),1,3.58e7,,1.93e7,
CG11714,1,4.02e7,3.09e7,2.56e7,1.48e7
kto (kohtalo),1,3.41e7,3.84e7,1.63e7,2.55e7
CG12880,1,3.00e7,4.51e7,1.50e7,1.97e7
CG4645,1,3.60e7,3.79e7,1.79e7,1.77e7
CG3894,1,2.85e7,3.80e7,1.33e7,1.59e7
CG3894,2,2.34e7,3.49e7,1.22e7,1.63e7
CG3894,3,4.46e7,2.22e7,2.44e7,1.13e7
CG18223,1,1.84e7,3.23e7,1.01e7,1.53e7
CG18682 (retired record),1,3.52e7,6.44e7,1.77e7,2.36e7
CG18682 (retired record),2,3.10e7,4.09e7,1.58e7,1.95e7
vap (vacuolar peduncle),1,4.24e7,4.09e7,1.91e7,1.82e7
CG7300,1,4.46e7,,2.07e7,
CG7800,1,5.36e7,3.85e7,2.70e7,2.00e7
Efr (ER GDP-fucose transporter),1,3.00e7,3.39e7,1.54e7,1.76e7
CG13955,1,5.72e7,4.63e7,2.57e7,1.90e7
CG34337,1,3.27e7,3.59e7,1.63e7,1.77e7
Ih (I[[h]] channel),1,5.13e7,4.81e7,2.50e7,2.12e7
Ih (I[[h]] channel),2,4.10e7,4.69e7,1.75e7,2.12e7
Ih (I[[h]] channel),3,2.42e7,2.32e7,1.32e7,1.07e7
CG10214,1,4.76e7,3.73e7,2.21e7,1.63e7
CG3594,1,3.77e7,,2.03e7,
CG3594,2,3.03e7,4.30e7,1.63e7,2.41e7
RhoGAP93B (Rho GTPase activating protein at 93B),1,4.69e7,4.79e7,5.32e7,2.03e7
rho-4 (rhomboid-4),1,3.43e7,4.14e7,1.65e7,1.95e7
rho-4 (rhomboid-4),2,3.62e7,5.23e7,1.84e7,2.47e7
CG15879,1,3.34e7,3.05e7,1.61e7,1.55e7
bs (blistered),1,2.77e7,4.61e7,1.74e7,2.30e7
bs (blistered),2,5.14e7,2.77e7,2.68e7,1.23e7
S-Lap4 (Sperm-Leucylaminopeptidase 4),1,1.45e7,2.02e7,8.76e6,9.47e6
rush (rush hour),1,1.72e7,2.56e7,8.79e6,1.27e7
CG18324,1,4.76e7,3.85e7,1.98e7,1.79e7
ric8b + ric8a,1,3.81e7,5.12e7,1.85e7,2.48e7
wuc (Wake-up-call),1,3.46e7,5.12e7,1.87e7,2.20e7
CG7365,1,2.67e7,4.18e7,1.26e7,2.79e7
RanBPM (Ran-binding protein M),1,5.76e7,4.49e7,2.39e7,2.12e7
Csp (Cysteine string protein),1,3.26e7,4.48e7,1.63e7,2.89e7
CG18048,1,3.59e7,2.71e7,1.90e7,1.40e7
ras (raspberry),1,3.68e7,2.83e7,1.61e7,1.42e7
CG14194,1,5.47e7,4.60e7,2.77e7,2.12e7
CG14147,1,2.65e7,2.95e7,1.34e7,1.29e7

Look-ups from the entries so far.
Under “calcium entry signal, replicate 1 (fluorescence units)”, CG3894 #3 reads 4.46e7
Entry of CG12307 in “resting calcium signal, replicate 1 (fluorescence units)”: 1.66e7
Result of Csp (Cysteine string protein) in “resting calcium signal, replicate 2 (fluorescence units)”: 2.89e7
Value for CG31321 in “calcium entry signal, replicate 1 (fluorescence units)”: 2.82e7
Under “resting calcium signal, replicate 2 (fluorescence units)”, Efr (ER GDP-fucose transporter) is entered as 1.76e7
Entry of CG3594 #1 under “resting calcium signal, replicate 1 (fluorescence units)”: 2.03e7
